{
  "source": "patent US11452781B2",
  "about": "“Method of preventing and treating type 1 diabetes, allograft rejection and lung fibrosis (by targeting the ATP/P2X7R axis)” (CHILDREN'S MEDICAL CENTER CORPORATION, priority 2013, dated 2022)",
  "system": "P2X7R2/2 C57BL6 mice transplanted with BALB/c islets",
  "assay": "Allogeneic islet transplantation into P2X7R-/- C57BL6 recipients",
  "conditions": "rapamycin, n=7",
  "note": "For at least one compound, name, drawing or mass did not settle the structure.",
  "data": [
    {"smiles": "CO[C@H]1C[C@@H]2CC[C@@H](C)[C@@](O)(O2)C(=O)C(=O)N2CCCC[C@H]2C(=O)O[C@H]([C@H](C)C[C@@H]2CC[C@@H](O)[C@H](OC)C2)CC(=O)[C@H](C)/C=C(\\C)[C@@H](O)[C@@H](OC)C(=O)[C@H](C)C[C@H](C)/C=C/C=C/C=C/1C", "note": "[Rapamycin]", "values": [
      {"measurement": "prolongation of islet graft survival vs wild-type recipients", "result": "more effective"}
    ]}
  ]
}
